Test results: the supplement of paper PMC4604168 (melanoma cell lines)
Some of the results follow. Repeats are few or missing, and single values can be far off.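 Cells were imaged in 1,536-well plates, and nuclei stained with an antibody against cleaved PARP were counted against all DNA-stained nuclei to give the apoptosis fraction. Screening doses were chosen to leave most cells alive, and resting and induced cleaved-PARP levels differ strongly between cell lines.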

Legend:
Test in all cases: cleaved PARP positive nuclei fraction relative to DMSO control; melanoma cells; higher = more apoptosis
Details in all cases: library dose: low library concentration; 72 h
MZ2-MEL = tested on: MZ2-MEL
MeWo = tested on: MeWo
RPMI7951 = tested on: RPMI7951
RVH-421 = tested on: RVH-421
SkMel28 = tested on: SkMel28
SkMel2 = tested on: SkMel2
SkMel30 = tested on: SkMel30
SkMel5 = tested on: SkMel5
UACC257 = tested on: UACC257
UACC62 = tested on: UACC62
WM115 = tested on: WM115
WM1716 = tested on: WM1716
WM1745 = tested on: WM1745
WM3526 = tested on: WM3526
WM3619 = tested on: WM3619
WM451Lu = tested on: WM451Lu

Cn1c(=O)n(-c2ccc(C(C)(C)C#N)cc2)c2c3cc(-c4cnc5ccccc5c4)ccc3ncc21 + NCC(=O)Nc1ccc(-n2nc(C(F)(F)F)cc2-c2ccc3c(ccc4ccccc43)c2)cc1 [OSU03012] (first compound 0.004 µM, partner dose 1 µM)
cleaved PARP positive nuclei fraction (MZ2-MEL): 114% | cleaved PARP positive nuclei fraction (MeWo): 165% | cleaved PARP positive nuclei fraction (RPMI7951): 51.2% | cleaved PARP positive nuclei fraction (RVH-421): 100% | cleaved PARP positive nuclei fraction (SkMel28): 128% | cleaved PARP positive nuclei fraction (SkMel2): 71.7% | cleaved PARP positive nuclei fraction (SkMel30): 92.4% | cleaved PARP positive nuclei fraction (SkMel5): 109% | cleaved PARP positive nuclei fraction (UACC257): 75.2% | cleaved PARP positive nuclei fraction (UACC62): 314% | cleaved PARP positive nuclei fraction (WM115): 59.1% | cleaved PARP positive nuclei fraction (WM1716): 89% | cleaved PARP positive nuclei fraction (WM1745): 101% | cleaved PARP positive nuclei fraction (WM3526): 101% | cleaved PARP positive nuclei fraction (WM3619): 89.3% | cleaved PARP positive nuclei fraction (WM451Lu): 41.5%

Nc1ccn([C@@H]2O[C@H](CO)[C@@H](O)C2(F)F)c(=O)n1 [gemcitabine] + N#Cc1c(O)c2c(-c3ccc(-c4ccccc4O)cc3)csc2[nH]c1=O [A769662] (first compound 0.0004 µM, partner dose 2 µM)
cleaved PARP positive nuclei fraction (MZ2-MEL): 145% | cleaved PARP positive nuclei fraction (MeWo): 81.1% | cleaved PARP positive nuclei fraction (RPMI7951): 25% | cleaved PARP positive nuclei fraction (RVH-421): 87.5% | cleaved PARP positive nuclei fraction (SkMel28): 280% | cleaved PARP positive nuclei fraction (SkMel2): 95.6% | cleaved PARP positive nuclei fraction (SkMel30): 177% | cleaved PARP positive nuclei fraction (SkMel5): 64.2% | cleaved PARP positive nuclei fraction (UACC257): 205% | cleaved PARP positive nuclei fraction (UACC62): 72.3% | cleaved PARP positive nuclei fraction (WM115): 101% | cleaved PARP positive nuclei fraction (WM1716): 53.5% | cleaved PARP positive nuclei fraction (WM1745): 104% | cleaved PARP positive nuclei fraction (WM3526): 81.3% | cleaved PARP positive nuclei fraction (WM3619): 143% | cleaved PARP positive nuclei fraction (WM451Lu): 29.4%

O=C(O)c1ccc2c(c1)nc(Nc1cccc(Cl)c1)c1ccncc12 + Oc1cc(-c2nc(-c3ccccc3)[nH]c2-c2ccncc2)ccc1Cl [L779450] (first compound 0.4 µM, partner dose 0.2 µM)
cleaved PARP positive nuclei fraction (MZ2-MEL): 145% | cleaved PARP positive nuclei fraction (MeWo): 92.5% | cleaved PARP positive nuclei fraction (RPMI7951): 72.3% | cleaved PARP positive nuclei fraction (RVH-421): 140% | cleaved PARP positive nuclei fraction (SkMel28): 123% | cleaved PARP positive nuclei fraction (SkMel2): 231% | cleaved PARP positive nuclei fraction (SkMel30): 450% | cleaved PARP positive nuclei fraction (SkMel5): 73.2% | cleaved PARP positive nuclei fraction (UACC257): 323% | cleaved PARP positive nuclei fraction (UACC62): 345% | cleaved PARP positive nuclei fraction (WM115): 253% | cleaved PARP positive nuclei fraction (WM1716): 74.3% | cleaved PARP positive nuclei fraction (WM1745): 93.3% | cleaved PARP positive nuclei fraction (WM3526): 118% | cleaved PARP positive nuclei fraction (WM3619): 101% | cleaved PARP positive nuclei fraction (WM451Lu): 120%

Nc1ccn([C@@H]2O[C@H](CO)[C@@H](O)C2(F)F)c(=O)n1 [gemcitabine] + CCc1ccc(CCOc2ccc(CC3SC(=O)NC3=O)cc2)nc1 [pioglitazone] (first compound 0.0004 µM, partner dose 2 µM)
cleaved PARP positive nuclei fraction (MZ2-MEL): 120% | cleaved PARP positive nuclei fraction (MeWo): 101% | cleaved PARP positive nuclei fraction (RPMI7951): 88.7% | cleaved PARP positive nuclei fraction (RVH-421): 72.4% | cleaved PARP positive nuclei fraction (SkMel28): 124% | cleaved PARP positive nuclei fraction (SkMel2): 160% | cleaved PARP positive nuclei fraction (SkMel30): 19.1% | cleaved PARP positive nuclei fraction (SkMel5): 72.2% | cleaved PARP positive nuclei fraction (UACC257): 86.1% | cleaved PARP positive nuclei fraction (UACC62): 416% | cleaved PARP positive nuclei fraction (WM115): 211% | cleaved PARP positive nuclei fraction (WM1716): 213% | cleaved PARP positive nuclei fraction (WM1745): 114% | cleaved PARP positive nuclei fraction (WM3526): 137% | cleaved PARP positive nuclei fraction (WM3619): 96.5% | cleaved PARP positive nuclei fraction (WM451Lu): 33.4%

CS(=O)(=O)CCNCc1ccc(-c2ccc3ncnc(Nc4ccc(OCc5cccc(F)c5)c(Cl)c4)c3c2)o1 [lapatinib] + COc1cc2c(Oc3ccc4[nH]c(C)cc4c3F)ncnc2cc1OCCCN1CCCC1 [cediranib] (first compound 0.8 µM, partner dose 0.4 µM)
cleaved PARP positive nuclei fraction (MZ2-MEL): 117% | cleaved PARP positive nuclei fraction (MeWo): 116% | cleaved PARP positive nuclei fraction (RPMI7951): 107% | cleaved PARP positive nuclei fraction (RVH-421): 27.6% | cleaved PARP positive nuclei fraction (SkMel28): 93.4% | cleaved PARP positive nuclei fraction (SkMel2): 111% | cleaved PARP positive nuclei fraction (SkMel30): 69.2% | cleaved PARP positive nuclei fraction (SkMel5): 41.1% | cleaved PARP positive nuclei fraction (UACC257): 57.7% | cleaved PARP positive nuclei fraction (UACC62): 120% | cleaved PARP positive nuclei fraction (WM115): 124% | cleaved PARP positive nuclei fraction (WM1716): 132% | cleaved PARP positive nuclei fraction (WM1745): 97.3% | cleaved PARP positive nuclei fraction (WM3526): 67.8% | cleaved PARP positive nuclei fraction (WM3619): 82.1% | cleaved PARP positive nuclei fraction (WM451Lu): 212%

CC(C)C[C@H](NC(=O)[C@H](Cc1ccccc1)NC(=O)c1cnccn1)B(O)O [Bortezomib] + CCc1ccc(CCOc2ccc(CC3SC(=O)NC3=O)cc2)nc1 [pioglitazone] (first compound 0.001 µM, partner dose 2 µM)
cleaved PARP positive nuclei fraction (MZ2-MEL): 142% | cleaved PARP positive nuclei fraction (MeWo): 100% | cleaved PARP positive nuclei fraction (RPMI7951): 194% | cleaved PARP positive nuclei fraction (RVH-421): 210% | cleaved PARP positive nuclei fraction (SkMel28): 112% | cleaved PARP positive nuclei fraction (SkMel2): 143% | cleaved PARP positive nuclei fraction (SkMel30): 163% | cleaved PARP positive nuclei fraction (SkMel5): 73.2% | cleaved PARP positive nuclei fraction (UACC257): 117% | cleaved PARP positive nuclei fraction (UACC62): 53.8% | cleaved PARP positive nuclei fraction (WM115): 113% | cleaved PARP positive nuclei fraction (WM1716): 689% | cleaved PARP positive nuclei fraction (WM1745): 144% | cleaved PARP positive nuclei fraction (WM3526): 177% | cleaved PARP positive nuclei fraction (WM3619): 773% | cleaved PARP positive nuclei fraction (WM451Lu): 131%

C[C@@H](Oc1cc(-c2cnn(C3CCNCC3)c2)cnc1N)c1c(Cl)ccc(F)c1Cl [Crizotinib] + O=C(O)c1ccc(-c2c[nH]c3ncc(-c4ccccc4)cc23)cc1C1CCCC1 [GSK650394] (first compound 0.2 µM, partner dose 0.16 µM)
cleaved PARP positive nuclei fraction (MZ2-MEL): 82.6% | cleaved PARP positive nuclei fraction (MeWo): 58.8% | cleaved PARP positive nuclei fraction (RPMI7951): 88.5% | cleaved PARP positive nuclei fraction (RVH-421): 84.4% | cleaved PARP positive nuclei fraction (SkMel28): 42.8% | cleaved PARP positive nuclei fraction (SkMel2): 89.4% | cleaved PARP positive nuclei fraction (SkMel30): 133% | cleaved PARP positive nuclei fraction (SkMel5): 98.1% | cleaved PARP positive nuclei fraction (UACC257): 44% | cleaved PARP positive nuclei fraction (UACC62): 68.9% | cleaved PARP positive nuclei fraction (WM115): 42.6% | cleaved PARP positive nuclei fraction (WM1716): 61% | cleaved PARP positive nuclei fraction (WM1745): 95.4% | cleaved PARP positive nuclei fraction (WM3526): 186% | cleaved PARP positive nuclei fraction (WM3619): 87.1% | cleaved PARP positive nuclei fraction (WM451Lu): 68.8%

CS(=O)(=O)CCNCc1ccc(-c2ccc3ncnc(Nc4ccc(OCc5cccc(F)c5)c(Cl)c4)c3c2)o1 [lapatinib] + O=C(Nc1ccccc1)c1cc([N+](=O)[O-])ccc1Cl [GW9662] (first compound 0.8 µM, partner dose 2 µM)
cleaved PARP positive nuclei fraction (MZ2-MEL): 189% | cleaved PARP positive nuclei fraction (MeWo): 138% | cleaved PARP positive nuclei fraction (RPMI7951): 43.6% | cleaved PARP positive nuclei fraction (RVH-421): 29.5% | cleaved PARP positive nuclei fraction (SkMel28): 198% | cleaved PARP positive nuclei fraction (SkMel2): 120% | cleaved PARP positive nuclei fraction (SkMel30): 138% | cleaved PARP positive nuclei fraction (SkMel5): 225% | cleaved PARP positive nuclei fraction (UACC257): 212% | cleaved PARP positive nuclei fraction (UACC62): 56.9% | cleaved PARP positive nuclei fraction (WM115): 157% | cleaved PARP positive nuclei fraction (WM1716): 215% | cleaved PARP positive nuclei fraction (WM1745): 105% | cleaved PARP positive nuclei fraction (WM3526): 31.8% | cleaved PARP positive nuclei fraction (WM3619): 91% | cleaved PARP positive nuclei fraction (WM451Lu): 123%

Nc1ccn([C@@H]2O[C@H](CO)[C@@H](O)C2(F)F)c(=O)n1 [gemcitabine] + COc1ccc(-c2ccc3c(N4CCOCC4)nc(N4C[C@@H](C)O[C@@H](C)C4)nc3n2)cc1CO [KU0063794] (first compound 0.0004 µM, partner dose 0.02 µM)
cleaved PARP positive nuclei fraction (MZ2-MEL): 137% | cleaved PARP positive nuclei fraction (MeWo): 67% | cleaved PARP positive nuclei fraction (RPMI7951): 126% | cleaved PARP positive nuclei fraction (RVH-421): 141% | cleaved PARP positive nuclei fraction (SkMel28): 140% | cleaved PARP positive nuclei fraction (SkMel2): 46.6% | cleaved PARP positive nuclei fraction (SkMel30): 27.2% | cleaved PARP positive nuclei fraction (SkMel5): 72.7% | cleaved PARP positive nuclei fraction (UACC257): 61% | cleaved PARP positive nuclei fraction (UACC62): 52% | cleaved PARP positive nuclei fraction (WM115): 128% | cleaved PARP positive nuclei fraction (WM1716): 482% | cleaved PARP positive nuclei fraction (WM1745): 151% | cleaved PARP positive nuclei fraction (WM3526): 82.6% | cleaved PARP positive nuclei fraction (WM3619): 139% | cleaved PARP positive nuclei fraction (WM451Lu): 67.5%
